Data published in publication PMC10015162.

By UniProt entry, the sequences of proteins in these tests, tags left out.
UniProt Q39011: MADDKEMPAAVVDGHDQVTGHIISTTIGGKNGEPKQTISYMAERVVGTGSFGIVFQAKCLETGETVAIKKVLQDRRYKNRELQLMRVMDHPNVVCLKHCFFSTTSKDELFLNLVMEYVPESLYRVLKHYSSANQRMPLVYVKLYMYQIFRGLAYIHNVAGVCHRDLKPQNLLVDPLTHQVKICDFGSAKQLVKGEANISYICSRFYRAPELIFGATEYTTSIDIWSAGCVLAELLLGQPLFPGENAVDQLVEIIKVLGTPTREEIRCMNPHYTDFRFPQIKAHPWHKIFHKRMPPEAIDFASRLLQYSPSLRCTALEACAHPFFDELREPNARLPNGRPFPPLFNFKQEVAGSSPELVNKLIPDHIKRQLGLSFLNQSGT

B1: J-DOMAIN PROTEIN REQUIRED FOR CHLOROPLAST ACCUMULATION RESPONSE 1 (protein, UniProt Q9C9Q4 1-651)
chain: MQTLPSSETVLLGSNSAPPVLRSPGGDDVDIDFGDVFGGPPKRRSKVTSNEVTRHSFSESALRRRDVIVDVGDLLPQDEKPVFGEDTSSVRRRFTTDDFFDDIFRVNESSSLPGSRILSPAHKPESSSGTSSPSQFSLPAKATEIPTFNLAATRSLNKNKETVSSSPLSRTSSKADVVSTAKSYSDDCDDPPQVFVTGKGRQFHFSIYKWPNKGVPVVIWGSSRLSSMSKAEETTPVPLSDYRKTSVVEKLGKNEEGDGKSGLSGLKDVKKTSLKRPGVQTKEEKTETDLKSEQAFFGVSKAREANVKPLDSVESEQAFSGVSKAHEATTVKPLHSIFHEEDERQDEKIVSEREVRKGKSKAKNTRSFTEDSRTKKKSQGTKSSLDSSPIPDKSSFASSSAAPEVGKDGVKGKVSDFVKIFSKGASVGAGGESLGQSSRWRAKETPKTDIIHDGSNAKETVNIPDQQKKSTPDIPAMNRDQKPSQSTQKKDSDRESMNYKAPGDTVQEERQEPSTTHTTSEDIDEPFHVNFDVEDITQDENKMEEANKDAEEIKNIDAKIRKWSSGKSGNIRSLLSTLQYILWSGSGWKPVPLMDMIEGNAVRKSYQRALLILHPDKLQQKGASANQKYMAEKVFELLQEAWDHFNTLGPV
B2: KINESIN LIKE PROTEIN FOR ACTIN BASED CHLOROPLAST MOVEMENT 1 (protein, UniProt Q9LX99 1-1273)
chain: MADQRSKTNRWNWEVSGFEPRKSSSNASFAESTGHRTTGPLLRRNSISTPSLPPKQAIASKVNGLKEKVKLAKEDYLELRQEATDLQEYSNAKLDRVTRYLGVLAEKSRKLDQFVLETEARISPLINEKKRLFNDLLTAKGNIKVFCRARPLFEDEGPSVIEFPGDCTICVNTSDDTLSNPKKDFEFDRVYGPHVGQAALFSDVQPFVQSALDGSNVSILSYGQTNAGKTYTMEGSNHDRGLYARCFEELFDLANSDSTSTSRFSFSLSVFEIYNEQIRDLLSETQSNLPNINMDLHESVIELGQEKVDNPLEFLGVLKSAFLNRGNYKSKFNVTHLIVSIHIYYSNTITGENIYSKLSLVDLAGSEGLIMENDSGDHVTDLLHVMNSISALGDVLSSLTSGKDSIPYDNSILTRVLADSLGGSSKTLMIVNICPSVQTLSETISCLNYAARARNTVPSLGNRDTIKKWRDVASDARKELLEKERENQNLKQEVVGLKKALKDANDQCVLLYSEVQRAWKVSFTLQSDLKSENIMLVDKHRLEKEQNSQLRNQIAQFLQLDQEQKLQMQQQDSAIQNLQAKITDLESQVSEAVRSDTTRTGDALQSQDIFSPIPKAVEGTTDSSSVTKKLEEELKKRDALIERLHEENEKLFDRLTERSMAVSTQVLSPSLRASPNIQPANVNRGEGYSAEAVALPSTPNKNNGAITLVKSGTDLVKTTPAGEYLTAALNDFDPEEYEGLAAIADGANKLLMLVLAAVIKAGASREHEILAEIRDSVFSFIRKMEPRRVMDTMLVSRVRILYIRSLLARSPELQTIRVSPVECFLEKPNTGRSKSTSRGSSPGRSPVRYLDTQIHGFKVNIKAERRNKLASVVSRMRGLEQDAGRQQVTGVKLREMQDEAKSFAIGNKALAALFVHTPAGELQRQIRLWLAENFEFLSVTSDDVSGGNGGQLELLSTAIMDGWMAGLGAAVPPHTDALGQLLSEYAKRVYTSQMQHMKDIAGTLAAEEAEDAGQVSKLRSALESVDHKRRKILQQMKSDAALLNLEEGSSPIPNPSTAAEDSRLASLISLDGILKQVKEITRQASVHVLSKSKKKALLESLDELTERMPSLLDIDHPCAQREIATAHQLVETIPEQEDTNILEQSHDRRPSLESISSGETDVSQWNVLQFNTGSSAPFIIKCGGNNNSELVIKADARVQEPKGGEIVRVVPRPSVLVNMSLEEMKQMFVQLPEALSLLALARTADGTRARYSRLYKTLAMKVPSLKDLVSELE
B3: CHLOROPLAST UNUSUAL POSITIONING 1 (protein, UniProt Q9LI74 1-1004)
chain: MFVRIGFVVAASIAAVTVKRLNVKPSKPSKPSDNGEGGDKEQSVDPDYNLNDKNLQEEEEEEEEEVKLINSVINQTRGSFSDYLDDDILPEFEDLLSGEIEYPLPDDDNNLEKAEKERKYEVEMAYNDGELERLKQLVKELEEREVKLEGELLEYYGLKEQESDIVELQRQLKIKTVEIDMLNITINSLQAERKKLQEELSQNGIVRKELEVARNKIKELQRQIQLDANQTKGQLLLLKQHVSSLQMKEEEAMNKDTEVERKLKAVQDLEVQVMELKRKNRELQHEKRELSIKLDSAEARIATLSNMTESDKVAKVREEVNNLKHNNEDLLKQVEGLQMNRFSEVEELVYLRWVNACLRYELRNYQTPAGKISARDLSKNLSPKSQAKAKRLMLEYAGSERGQGDTDLESNYSQPSSPGSDDFDNASMDSSTSRFSSFSKKPGLIQKLKKWGKSKDDSSVQSSPSRSFYGGSPGRLSSSMNKQRGPLESLMIRNAGESVAITTFGQVDQESPGTPETPNLPRIRTQQQASSPGEGLNSVAASFHVMSKSVDNVLDEKYPAYKDRHKLAVEREKHIKHKADQARAERFGGNVALPPKLAQLKEKRVVVPSVITATGDQSNESNESNEGKASENAATVTKMKLVDIEKRPPRVPRPPPRSAGGGKSTNLPSARPPLPGGGPPPPPPPPGGGPPPPPGGGPPPPPPPPGALGRGAGGGNKVHRAPELVEFYQSLMKRESKKEGAPSLISSGTGNSSAARNNMIGEIENRSTFLLAVKADVETQGDFVQSLATEVRASSFTDIEDLLAFVSWLDEELSFLVDERAVLKHFDWPEGKADALREAAFEYQDLMKLEKQVTSFVDDPNLSCEPALKKMYKLLEKVEQSVYALLRTRDMAISRYKEFGIPVDWLSDTGVVGKIKLSSVQLAKKYMKRVAYELDSVSGSDKDPNREFLLLQGVRFAFRVHQFAGGFDAESMKAFEELRSRAKTESGDNNNNNNNNSNEEESVN
B4: BRI1 SUPPRESSOR 1 (BSU1)-LIKE 1 (protein, UniProt Q8L7U5 1-881)
chain: MGSKPWLHPAPQYKTLETFWDDEDDAPGPRCAHTLTAVAATKTHGPRLILFGGATAIEGGSSSVPGIRLAGVTNTVHSYDILTRKWTRLKPAGEPPSPRAAHAAAAVGTMVVFQGGIGPAGHSTDDLYVLDMTNDKFKWHRVVVQGDGPGPRYGHVMDLVSQRYLVTVTGNDGKRALSDAWALDTAQKPYVWQRLNPDGDRPSARMYASGSARSDGMFLLCGGRDTLGAPLGDAYGLLMHRNGQWEWTLAPGVAPSPRYQHAAVFVGARLHVSGGVLRGGRVIDAEASVAVLDTAAGVWLDRNGQVTSARGSKGQIDQDPSFELMRRCRHGAASVGIRIYVHGGLRGDVLLDDFLVAENSTFQSDISSPLLASDRTQQSSTPRFSYAARPPSGSEPSFSMSEGLSLDENSLEKLTEASAAEAEVASSVWRAAQLGAGTLDEEPSTSDASSPIVESTTDGTANEGDVRLHPRAVVVAKETVGSLGGMVRQLSLDQFQNESRRMVPMNNSDVPQPTKKFTRQKSPQGLHKKVIAALLRPRNWKPPGNRKFFLDSYEVGELCYAAEQIFMHEQTVLQLKAPIKVFGDLHGQFGDLMRLFDEYGFPSTAGDITYIDYLFLGDYVDRGQHSLETITLLLALKIEYPENVHLIRGNHEAADINALFGFRLECIERMGENDGIWAWTRFNQLFNYLPLAALIENKIICMHGGIGRSISTVEQIEKIERPITMDAGSLVLMDLLWSDPTENDSIEGLRPNARGPGLVTFGPDRVTEFCKRNKLQLIIRAHECVMDGFERFAQGQLITLFSATNYCGTANNAGAILVVGRGLVIVPKLIHPLPPPILSPENSPEHSGDDAWMQELNIQRPPTPTRGRPQPDFDRSSLAYI
B5: translation initiation factor eIF4B2 (protein, UniProt Q9SAD7 1-549)
chain: MSKPWGGIGAWADEAERADEEQAAEATATAADSQSFPSLKEAATAKSSKKKKKMTLSEFTKGAYTAPSSAGLTREQMLQLPTGPRQRSEDEMQPGRLGGGFSSYGGGRSSGPPGRMSRDREDSDGSWGGGGGGRRSYGGFDDDQRGSNSRVSDFPQVSRADEDDDWGKGKKSLPSFDQGRQGSRYGGGGGSFGGGGGGGAGSYGGGGAGAGSGGGGGFSKADEVDNWAAGKAKSSTFGSGFRESGPEPDRWARGVLPSGGGVQEERRRLVFEPRKADTEVSETPTAVKTSKPSPFGAARPREQVLAEKGLDWKKLDSDIEAKKGQTSRPSSAQSSRPSSAQSNRSESSALNNVENVVKPRPKVNPFGDAKPREVLLEEQGKDWRKIDSELEHRRVDRPETEGERMLKEEIEELRKKLEKEAAIAPESKESQQESDSNHQNLPDLIREKEKNLDLLIRELDDKVRFRPRAVERPGSSASRGGSYSERPHSRAGSIDESRSVESMERPRSHGTGDNWPRPVDDRRNFQGSKERGFFNNRNFDRSSSAREGW
B6: BSL2 (protein, UniProt Q9SJF0 1-1018)
chain: MDEDSSMVADNDQDREFQSLDGGQSPSPMERETPQQMNDQSPPPEGGSVPTPPPSDPNPATSQQQAAAVVGQEQQPALVVGPRCAPTYSVVDAMMDKKEDGPGPRCGHTLTAVPAVGDEGTPGYIGPRLVLFGGATALEGNSGGTGTPTSAGSAGIRLAGATADVHCYDVLSNKWTRLTPFGEPPTPRAAHVATAVGTMVVIQGGIGPAGLSAEDLHVLDLTQQRPRWHRVVVQGPGPGPRYGHVMALVGQRYLMAIGGNDGKRPLADVWALDTAAKPYEWRKLEPEGEGPPPCMYATASARSDGLLLLCGGRDANSVPLASAYGLAKHRDGRWEWAIAPGVSPSSRYQHAAVFVNARLHVSGGALGGGRMVEDSSSVAVLDTAAGVWCDTKSVVTSPRTGRYSADAAGGDASVELTRRCRHAAAAVGDLIFIYGGLRGGVLLDDLLVAEDLAAAETTYAASHAAAAAATNSPPGRLPGRYGFSDERNRELSESAADGAVVLGSPVAPPVNGDMHTDISPENALLPGTRRTNKGVEYLVEASAAEAEAISATLAAAKARQVNGEVELPDRDCGAEATPSGKPTFSLIKPDSMGSMSVTPAGIRLHHRAVVVAAETGGALGGMVRQLSIDQFENEGRRVSYGTPESATAARKLLDRQMSINSVPKKVIAHLLKPRGWKPPVRRQFFLDCNEIADLCDSAERIFASEPTVLQLKAPIKIFGDLHGQFGDLMRLFDEYGSPSTAGDISYIDYLFLGDYVDRGQHSLETISLLLALKVEYQHNVHLIRGNHEAADINALFGFRIECIERMGERDGIWVWHRINRLFNWLPLAASIEKKIICMHGGIGRSINHVEQIENIQRPITMEAGSIVLMDLLWSDPTENDSVEGLRPNARGPGLVTFGPDRVMEFCNNNDLQLIVRAHECVMDGFERFAQGHLITLFSATNYCGTANNAGAILVLGRDLVVVPKLIHPLPPALSSPETSPERHIEDTWMQELNANRPATPTRGRPQNSNDRGGSLAWM

Biological target: BIN2-YFP-TbID (full-length BIN2 fused with YFP and TurboID), in transgenic Arabidopsis (Arabidopsis thaliana) (UniProt Q39011)
Test: proximity labelling; TbPL-MS: transgenic Arabidopsis seedlings with BIN2-YFP-TbID against YFP-YFP-TbID control, 14N/15N labelling, 50 µM biotin for 3 h, desalting, streptavidin beads, on-bead digestion, LC-MS/MS; BIN2-proximal: ratio >=3 in at least three of four replicates

Row | Binder | binding
1 | B1 | binds
2 | B2 | binds
3 | B3 | binds
4 | B4 | binds
5 | B5 | binds
6 | B6 | binds

No constants are given. Whether binding was seen depends on the method and setting. In cells and extracts the contact can be indirect. A yes stands for co-enrichment or nearness to the bait. Other partners may have been found.
